The text below walks through data of article PMC11087123.

Protein sequences, listed by entry. Tags and fused reporters are not part of them.
UniProt P46736: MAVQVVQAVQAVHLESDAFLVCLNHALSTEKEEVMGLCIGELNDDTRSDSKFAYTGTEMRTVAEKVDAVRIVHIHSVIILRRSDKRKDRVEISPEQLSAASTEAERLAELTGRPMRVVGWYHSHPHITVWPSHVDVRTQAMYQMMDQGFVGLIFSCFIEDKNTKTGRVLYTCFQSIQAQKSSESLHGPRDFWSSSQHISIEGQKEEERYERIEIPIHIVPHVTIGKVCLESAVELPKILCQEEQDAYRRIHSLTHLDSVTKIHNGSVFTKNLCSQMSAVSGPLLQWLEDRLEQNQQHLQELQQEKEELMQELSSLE

Results are given in words; binding and its absence hold for the method and conditions named. In cells and extracts the contact can be indirect. Some binding calls cover weakened binding; strength is not graded here.

The target of the assay is BRCC3 (human (endogenous in J82)) (UniProt P46736). Put plainly: co-IP; Co-IP between endogenous BRCC3 and USP15 in J82 cells; which protein was precipitated is not told.

B1: USP15 (enzyme, UniProt Q9Y4E8 1-981)
chain: MAEGGAADLDTQRSDIATLLKTSLRKGDTWYLVDSRWFKQWKKYVGFDSWDKYQMGDQNVYPGPIDNSGLLKDGDAQSLKEHLIDELDYILLPTEGWNKLVSWYTLMEGQEPIARKVVEQGMFVKHCKVEVYLTELKLCENGNMNNVVTRRFSKADTIDTIEKEIRKIFSIPDEKETRLWNKYMSNTFEPLNKPDSTIQDAGLYQGQVLVIEQKNEDGTWPRGPSTPKSPGASNFSTLPKISPSSLSNNYNNMNNRNVKNSNYCLPSYTAYKNYDYSEPGRNNEQPGLCGLSNLGNTCFMNSAIQCLSNTPPLTEYFLNDKYQEELNFDNPLGMRGEIAKSYAELIKQMWSGKFSYVTPRAFKTQVGRFAPQFSGYQQQDCQELLAFLLDGLHEDLNRIRKKPYIQLKDADGRPDKVVAEEAWENHLKRNDSIIVDIFHGLFKSTLVCPECAKISVTFDPFCYLTLPLPMKKERTLEVYLVRMDPLTKPMQYKVVVPKIGNILDLCTALSALSGIPADKMIVTDIYNHRFHRIFAMDENLSSIMERDDIYVFEININRTEDTEHVIIPVCLREKFRHSSYTHHTGSSLFGQPFLMAVPRNNTEDKLYNLLLLRMCRYVKISTETEETEGSLHCCKDQNINGNGPNGIHEEGSPSEMETDEPDDESSQDQELPSENENSQSEDSVGGDNDSENGLCTEDTCKGQLTGHKKRLFTFQFNNLGNTDINYIKDDTRHIRFDDRQLRLDERSFLALDWDPDLKKRYFDENAAEDFEKHESVEYKPPKKPFVKLKDCIELFTTKEKLGAEDPWYCPNCKEHQQATKKLDLWSLPPVLVVHLKRFSYSRYMRDKLDTLVDFPINDLDMSEFLINPNAGPCRYNLIAVSNHYGGMGGGHYTAFAKNKDDGKWYYFDDSSVSTASEDQIVSKAAYVLFYQRQDTFSGTGFFPLDRETKGASAATGIPLESDEDSNDNDNDIENENCMHTN
With B1, the binding entry is on record as “binds”.
